Test results taken from paper PMC7819943, “Rice protein-binding microarrays: a tool to detect cis-acting elements near promoter regions in rice”.
The list shows a part of the results.

molecular target: T1, OsSMF1 (Oryza sativa, UniProt Q6ZLB0 1-436); test: protein-binding microarray (RPBM); PBS, 2% BSA, 51.3 ng/ul salmon testes DNA, 50 uM zinc acetate, 200 nM TF, 25 C, 1 h; high values mean tight binding; conditions: protein: recombinant; tags: N-terminal polyhistidine and DsRed monomer fusion (pET32a); chain copies: 2; label: CyDye5-dUTP incorporated in the synthesized complementary strand; 3' TTTTT single-stranded linker to array surface; dsDNA, one strand shown
T1 sequence: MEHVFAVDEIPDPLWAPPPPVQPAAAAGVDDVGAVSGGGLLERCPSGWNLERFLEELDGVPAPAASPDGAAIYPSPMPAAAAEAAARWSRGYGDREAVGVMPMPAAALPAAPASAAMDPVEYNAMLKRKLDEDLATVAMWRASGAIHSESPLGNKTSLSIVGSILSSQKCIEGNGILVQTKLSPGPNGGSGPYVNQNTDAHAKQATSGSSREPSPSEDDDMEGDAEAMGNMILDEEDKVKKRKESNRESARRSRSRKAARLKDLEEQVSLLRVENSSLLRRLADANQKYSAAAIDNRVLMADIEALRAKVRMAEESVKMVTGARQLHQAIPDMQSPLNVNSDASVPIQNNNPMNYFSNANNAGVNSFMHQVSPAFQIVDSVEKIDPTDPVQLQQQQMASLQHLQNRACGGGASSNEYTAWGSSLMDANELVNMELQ
Summary of the method: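 Using Ni–NTA, transcription factors fused N-terminally to polyhistidine and DsRed were purified after expression in E. coli BL21-CodonPlus. These were incubated at 200 nM with a blocked, double-stranded custom Agilent array for 1 h at 25 °C in a buffer containing 50 µM zinc acetate, and the array was washed. The binding signal is per-feature fluorescence intensity (arbitrary units) on an Axon 4000B scanner.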

| Sequence | binding signal |
| --- | --- |
| TGCTCGTGTCCACTATTTCCATGACGCCAGCGACATGCATCGGAGTCACCTAGTGCAG | 4730 fluorescence intensity (a.u.) |
| CACTCAAAATCTCTTTCGTGTCCACCTCACCTTGCACCACCGGAGTCACCTAGTGCAG | 4870 fluorescence intensity (a.u.) |
| TGAAGTGCGCTGCTGTTGACACTTGACAGGTAGCTCGGCCCGGAGTCACCTAGTGCAG | 3180 fluorescence intensity (a.u.) |
| CCAAGCAGTTGGTGGCTCTGTTACGTACTACATGCGCGCGCGGAGTCACCTAGTGCAG | 3280 fluorescence intensity (a.u.) |
| TGCTTGATACTACTACGGAGAAAACAACGCATGTTTAAACCGGAGTCACCTAGTGCAG | 29800 fluorescence intensity (a.u.) |
| TTAGTATGTTAGTATGTGTTTTATCCAACACTACAAAATGCGGAGTCACCTAGTGCAG | 12900 fluorescence intensity (a.u.) |
| TTGGCGAATGCTGCCAACGATCCTGACGTTGTTGACCTGACGGAGTCACCTAGTGCAG | 4900 fluorescence intensity (a.u.) |
| AAATCACACCCACGCTCGTGCCCATTGGGTCGGGTATCCGCGGAGTCACCTAGTGCAG | 3550 fluorescence intensity (a.u.) |
| GTGTTTAATGATATCGAATGACACCATGTCTAGATAAATCCGGAGTCACCTAGTGCAG | 3230 fluorescence intensity (a.u.) |
| GACACGGACAAGTGACGTGGCGATCCCTTGTCCCCACCGACGGAGTCACCTAGTGCAG | 22700 fluorescence intensity (a.u.) |
| CCGCACTGCAAAGATCGCGCCACATCAAGATCCAACTCCCCGGAGTCACCTAGTGCAG | 4410 fluorescence intensity (a.u.) |
| GGGTGTATCTGCAAATATACCACCAGCCCAGCCTGGAGCACGGAGTCACCTAGTGCAG | 3260 fluorescence intensity (a.u.) |
| ACGTTTTGTACTTGGTGTGACTCCTAACTGCCTACTAAGCCGGAGTCACCTAGTGCAG | 3200 fluorescence intensity (a.u.) |
| CTTCTCTATCAGGAGCAGAGATGCACGTGGACATGGAGAGCGGAGTCACCTAGTGCAG | 3290 fluorescence intensity (a.u.) |
| GAGGAGTGGGCCGGCCAGCACGTCCTGGTGGTGCCCCATGCGGAGTCACCTAGTGCAG | 3880 fluorescence intensity (a.u.) |
| ATTGTACACACACTGAAATTGCAATAAACAGAATGTTTCCCGGAGTCACCTAGTGCAG | 13400 fluorescence intensity (a.u.) |
| CGCACTCACCCCGTCACCCGACGCCGCCGACTCCTCCCTCCGGAGTCACCTAGTGCAG | 4220 fluorescence intensity (a.u.) |
| ACCGCTCAACGTCATCAACAAATATGTAGCGTCCGATTTCCGGAGTCACCTAGTGCAG | 6400 fluorescence intensity (a.u.) |
| GCTATATGAGCCATCGCGTCCGCCCGTGCACCAGCACCAGCGGAGTCACCTAGTGCAG | 3190 fluorescence intensity (a.u.) |
| ACATGTGAGACAATAGAAAGATAGACCACGTATTACTCACCGGAGTCACCTAGTGCAG | 3570 fluorescence intensity (a.u.) |
| ACTGTAATGGCGCGTACGTGTAATGTTGCGATGAGAGCTCCGGAGTCACCTAGTGCAG | 5300 fluorescence intensity (a.u.) |
| TCGAATCTTTTGGTCATAGTGACTGTCAAGTAGTGATCAACGGAGTCACCTAGTGCAG | 3710 fluorescence intensity (a.u.) |
| AGCGTGCCTCAACTTCTCCAACTCCGCGTGGCTGCTCGCCCGGAGTCACCTAGTGCAG | 4440 fluorescence intensity (a.u.) |

Two entries from above, tab-delimited:
Sequence	binding signal
CGCACTCACCCCGTCACCCGACGCCGCCGACTCCTCCCTCCGGAGTCACCTAGTGCAG	4220 fluorescence intensity (a.u.)
ACCGCTCAACGTCATCAACAAATATGTAGCGTCCGATTTCCGGAGTCACCTAGTGCAG	6400 fluorescence intensity (a.u.)
